# ± gives the standard deviation. The list shows a part of the results, in another mix than the full data. Many entries were measured with a wide error.
# Tested on: MILI (PIWIL2) piRISC loaded with L1MC piRNA (26 nt)
# Test: pre-steady-state target cleavage rate (min^-1); MIWI and MILI are mouse PIWI proteins and EfPiwi is from a freshwater sponge; tags in brackets are library labels; higher = faster piRNA-guided slicing of the target
# Conditions: guide: L1MC piRNA 5'p-UAACUAAAUACUAUGCAAGCUGUAGG; auxiliary factor: 500 nM mouse GTSF1
# Outline: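 Cleave-'n-Seq used a transcribed, DNA-blocked target RNA library at 0.1 nM and active affinity-purified piRISC with one synthetic guide at 1 nM, with or without 500 nM GTSF1 partner protein, in HEPES–potassium acetate buffer at 33 °C for 0–8 or 0–960 min. Uncleaved targets were sequenced and normalised to depth and to weakly complementary targets, and three trials were pooled with k3 capped at 0.0001 min^-1. The pre-steady-state cleavage rate was estimated by a burst-and-steady-state fit.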
row,Sequence,pre-steady-state target cleavage rate
1,UCCUGGAGCAGCUUGCAUAGUAUUUAGUUA,0.333 ± 0.021
2,UCCUCCUACAGCUCGCAUAGUAUUUAGUUA,0.288 ± 0.019
3,UCCUGGUACAGGUUGCAUAGUAUUUAGUAA,0.287 ± 0.04
4,UCCUGGAUCGCUUGCAUAGUAUUUAGUUA,0.29 ± 0.012
5,UCCUCCUACACGUUGCAUAGUAUUUAGUUA,0.321 ± 0.021
6,UCCUCCUACAGCUUUGCAUAGUAUUUAGUUA,0.291 ± 0.017
7,UCCUGGAUGUCGAACGUAAGUAAAUAGUUA,0.000166 ± 0.022

# Same assay, conditions: guide: L1MC piRNA 5'p-UAACUAAAUACUAUGCAAGCUGUAGG; auxiliary factor: none (no GTSF1)
row,Sequence,pre-steady-state target cleavage rate
1,UCCUGGAUCAGCUUGCAUAGUAUUUAAUUA,0.00199 ± 0.0035
2,UCCUGGUUCAGCUUGCAUAGUAUUUUCAAA,0.00223 ± 0.0034
3,UCCUGGAUCAGCUUGCAUUGUAUUUAGAUA,0.00239 ± 0.0033
4,UCCUGCUACUGCUUGCAUAGUAUAUAGUUA,0.00235 ± 0.0029
5,UCCUGGAUCAGCUUGCAUAGAAUUUACUUA,0.00147 ± 0.0045
6,UCCUCCUACAGCUUGCAUAGUUUAUAGUUA,0.00252 ± 0.0029
7,UCCUCCUUCAGCUUGCAUAGUAUUUAGAAA,0.00112 ± 0.0048
8,UCCUGGUACAGGUUGCAUAGAAUUUAGUUA,0.00238 ± 0.0042
9,UCCUCCUUCAGCUUGCAUAGUAUUUACUUA,0.00218 ± 0.0025
10,UCCUGGAACAGCUUGCAUAGUAUUUAGUA,0.00278 ± 0.0029
11,UCCUCCUUCAGCUUGCAUAGUAUUUACAAA,0.00132 ± 0.0045
12,UCCUCGUACAGCUUGCAUAGUAUUUACUUA,0.00197 ± 0.0037
13,UCCUGGAUCAGCUUGCAUAGUAAAAUCAAA,0.0011 ± 0.0045
14,UCCUGCUACAGCUUGCAUAGUAUUAUGUUA,0.0023 ± 0.0041
15,UCCUGGAUGUGCUUGCAUACUAUUUUGUUA,0.000993 ± 0.0068
16,UCCUGGAUCAGCUUGCAUAGUUAAUAGUUA,0.00274 ± 0.003
17,UCCUGGAACAGCAAGCAUAGUAUUUAGUAA,0.00279 ± 0.0033

# Shown as tab-separated lines: part of the list above.
row	Sequence	pre-steady-state target cleavage rate
2	UCCUGGUUCAGCUUGCAUAGUAUUUUCAAA	0.00223 ± 0.0034
3	UCCUGGAUCAGCUUGCAUUGUAUUUAGAUA	0.00239 ± 0.0033
4	UCCUGCUACUGCUUGCAUAGUAUAUAGUUA	0.00235 ± 0.0029
5	UCCUGGAUCAGCUUGCAUAGAAUUUACUUA	0.00147 ± 0.0045
6	UCCUCCUACAGCUUGCAUAGUUUAUAGUUA	0.00252 ± 0.0029
7	UCCUCCUUCAGCUUGCAUAGUAUUUAGAAA	0.00112 ± 0.0048
8	UCCUGGUACAGGUUGCAUAGAAUUUAGUUA	0.00238 ± 0.0042
9	UCCUCCUUCAGCUUGCAUAGUAUUUACUUA	0.00218 ± 0.0025
10	UCCUGGAACAGCUUGCAUAGUAUUUAGUA	0.00278 ± 0.0029
11	UCCUCCUUCAGCUUGCAUAGUAUUUACAAA	0.00132 ± 0.0045

# More results follow.

row,Sequence,pre-steady-state target cleavage rate
1,UCCUGGUACAGCUUGCAUUGUAUUAAGUUA,0.00118 ± 0.0065
2,UCCUGGAUGUCGAACCAUAGUAUAUUAGUUA,0.000318 ± 0.018
3,UCCUCCUACAGCUUGCAUACUAUUUAGUAA,0.00148 ± 0.0041
4,UCCUGGAUGUGCUUGCAUAGUAUUUAGAAA,0.00114 ± 0.0054
5,UCCUGGAUGUCGAACGAUAUGUAUUUAGUUA,0.000134 ± 0.035
6,UCCUGGAUCAGCUUGGAUACUAUUUAGUUA,0.00218 ± 0.0027
7,UCCUGCUACAGCUUGCAAAGUAUAUAGUUA,0.00266 ± 0.0029
8,UCCUGGAUGUCCUUGCAUAAUAUUUAGUUA,0.00224 ± 0.0033
9,UCCUGGAUCUGCUUGCAUAGUAUUUAGAAA,0.0016 ± 0.0044
10,UCCUGGAUGUGCUUCCAUACUAUUUAGUUA,0.000472 ± 0.012
11,UCCUGCUACAGCUUGCAUAGUAUGUAGUUA,0.000629 ± 0.011
12,UCCUGCUACAGCAUGCAUAGAAUUUAGUUA,0.00215 ± 0.0051
13,UCCUGGAUGUCGAAGCAUAGUAUUUGUUA,< 0.0001
14,UCCUCCUACACCUUGCAUAGUAUUUAGAUA,0.00132 ± 0.0052
15,UCCUGGAUGUGCUUGCAUAGUAUUUACUUA,0.00229 ± 0.0033
16,UCCUCCUACAGCUUGCAUAGUAUUAAGAUA,0.00136 ± 0.0039
